In paper PMC7901536 (Arteriosclerosis, thrombosis, and vascular biology, 2021):
No constants are given. Whether binding was seen depends on the method and setting. Some binding calls cover weakened binding; strength is not graded here.

The chains behind the UniProt entries cited, without tags or fusion partners. Where a name states a change or a piece, a line headed by the entry shows the natural chain unless it says otherwise. Residues count along the entry.
UniProt Q9HCN6, residues 21-267: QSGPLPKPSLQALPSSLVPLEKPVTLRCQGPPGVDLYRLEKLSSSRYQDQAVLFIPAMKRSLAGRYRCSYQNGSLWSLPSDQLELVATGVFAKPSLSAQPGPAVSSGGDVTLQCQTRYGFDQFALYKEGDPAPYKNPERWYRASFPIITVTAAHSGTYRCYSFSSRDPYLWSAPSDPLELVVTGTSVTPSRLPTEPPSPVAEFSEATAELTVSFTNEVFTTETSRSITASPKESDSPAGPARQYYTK
UniProt P02671: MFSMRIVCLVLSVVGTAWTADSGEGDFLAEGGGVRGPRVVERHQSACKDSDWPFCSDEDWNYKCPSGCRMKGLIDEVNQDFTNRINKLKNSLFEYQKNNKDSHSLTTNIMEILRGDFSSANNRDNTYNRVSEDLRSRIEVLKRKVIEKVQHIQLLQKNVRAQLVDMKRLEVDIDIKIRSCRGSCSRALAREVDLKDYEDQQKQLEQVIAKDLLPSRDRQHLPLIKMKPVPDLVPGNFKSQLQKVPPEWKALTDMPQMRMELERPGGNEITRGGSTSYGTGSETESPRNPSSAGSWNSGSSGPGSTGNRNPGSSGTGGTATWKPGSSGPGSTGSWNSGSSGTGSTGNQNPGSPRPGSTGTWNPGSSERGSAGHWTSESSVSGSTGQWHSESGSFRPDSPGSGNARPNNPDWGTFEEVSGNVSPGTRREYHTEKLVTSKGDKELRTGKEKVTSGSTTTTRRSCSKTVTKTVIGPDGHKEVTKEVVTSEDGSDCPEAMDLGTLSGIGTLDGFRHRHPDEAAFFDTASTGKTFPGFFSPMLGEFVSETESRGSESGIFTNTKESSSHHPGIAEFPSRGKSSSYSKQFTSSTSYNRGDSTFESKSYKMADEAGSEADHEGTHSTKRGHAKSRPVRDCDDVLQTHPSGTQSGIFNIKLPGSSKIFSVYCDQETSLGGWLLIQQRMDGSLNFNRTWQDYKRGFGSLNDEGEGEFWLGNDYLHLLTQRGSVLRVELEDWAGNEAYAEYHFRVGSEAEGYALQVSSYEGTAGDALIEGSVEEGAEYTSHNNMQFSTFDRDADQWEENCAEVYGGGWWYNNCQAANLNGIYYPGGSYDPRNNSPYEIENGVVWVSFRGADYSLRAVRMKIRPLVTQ

How the values were obtained:
[1] = target: monomeric GPVI (His-tagged GPVI extracellular domain) (UniProt Q9HCN6); assay: SPR; biotinylated monomeric (140 RU) or dimeric (600 RU) GPVI on SA chip; monomeric GPVI over monomer and dimeric GPVI over dimer, up to 20 μM; 25 °C; both purified
[2] = target: monomeric GPVI (His-tagged GPVI extracellular domain) (UniProt Q9HCN6); assay: SEC; gel filtration of GPVI monomer and of GPVI dimer alone (Figure VIII in the Data Supplement); both purified
[3] = target: fibrin from plasma purified (IF-1) fibrinogen (UniProt P02671); assay: ELISA; plates coated with 10 nM fibrinogen, collagen fibrils or CRP-XL (fibrin made on the plate with 0.1 U/mL thrombin); GPVI constructs in solution at 100 nM or 0-400 nM, 1 h; detected by anti-human IgG-Fc HRP (dimer) or anti-6-His HRP (monomer); normalised to BSA; both purified
[4] = target: dimeric GPVI (GPVI extracellular domain fused by IgG-Fc) (UniProt Q9HCN6); assay: SPR; biotinylated monomeric (140 RU) or dimeric (600 RU) GPVI on SA chip; monomeric GPVI over monomer and dimeric GPVI over dimer, up to 20 μM; 25 °C; both purified
[5] = target: dimeric GPVI (GPVI extracellular domain fused by IgG-Fc) (UniProt Q9HCN6); assay: SEC; gel filtration of GPVI monomer and of GPVI dimer alone (Figure VIII in the Data Supplement); both purified

Substance	binding [1]	binding [2]	binding [3]	binding [4]	binding [5]
monomeric GPVI (His-tagged GPVI extracellular domain) (from UniProt Q9HCN6 21-267) (receptor)	no binding (tested: up to 20 μM)	no binding	binds	–	–
dimeric GPVI (GPVI extracellular domain fused by IgG-Fc) (from UniProt Q9HCN6 21-267) (Fc fusion)	–	–	binds	no binding (tested: up to 20 μM)	no binding
